Source: PubChem BioAssay AID1347076 (National Center for Advancing Translational Sciences (NCATS), 2019)
Among all 400,000 compounds or so, about 13,000 (3.2%) were called active. Inconclusive means that the source gave no clear call. Such entries were picked first, then a sample of the others. Calls come from the whole dose curve; as a rule, active = well fitted cell-killing curve with a large enough effect; inconclusive = small, poorly fitted or top-dose-only effect, or effect the other way; inactive = flat fitted curve, though single readings scatter. A potency beside an inconclusive call is a rough fit, not a confirmed value.

Test: qHTS assay for MDR1-selective chemotherapeutics: Primary screen using the drug-selected MDR subline cells KB-V1; note: nearly all actives have a fitted effect of over 60% in size
Settings: KB-V1 MDR cells viability, CellTiter-Glo, 72 h; series mostly up to 46.1 µM
Procedure, shortened: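 Following 72 h at 37 degrees C with compound, KB-V1 cell viability was read by CellTiter-Glo luminescence, medium being phenol-red-free DMEM plus 10% FBS; concentration-response parameters came from normalized, curve-fitted qHTS data.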
Potency is the fitted concentration of half-maximal effect.

Row | Structure (SMILES) | Potency
1 | Cc1ccc(NS(=O)(=O)c2cccc(C(=O)NC3CCN(Cc4ccccc4)CC3)c2)c(C)c1 | inactive
2 | CC(C)(CNC(=O)CNC(=O)c1ccccc1F)N1CCOCC1 | inactive
3 | COc1ccc(CNC(=O)[C@H](C)NC(=O)C2CCN(C(=O)[C@H](CCSC)NC(=O)OC(C)(C)C)CC2)cc1 | inconclusive: 16.4 µM [rising, partial curve, poor fit]
4 | NC(=S)N/N=C1\CCOc2ccc(Cl)cc21 | inconclusive: 13 µM [cytotoxic, partial curve]
5 | CC(C)(C)NC(=O)Nc1nnc(SCC(=O)NC2CCCCC2)s1 | inactive
6 | Cc1nc2cc3c(cc2c(C)c1C(=O)OC(C)C)OCO3 | inconclusive: 29.1 µM [cytotoxic, single point]
7 | CC(NC(=O)CN1C(=O)NC2(CCCCCCC2)C1=O)c1ccccc1 (stereo unspecified) | active: 23.1 µM
8 | CCc1nc2c(OCCOc3ccc(F)cc3)cccn2c1N(C)C(=O)c1ccco1 | inconclusive: 7.31 µM [cytotoxic, partial curve, poor fit]
9 | O=C(NCCCn1ccnc1)c1cc(-c2ccc3c(c2)OCO3)on1 | inactive
10 | COc1ccc(-c2nnc(SCc3c(C)noc3C)n2N)cc1OC | active: 7.31 µM
11 | O=C(/C=C/c1ccc[nH]1)c1ccccc1 | inactive
12 | Cn1c(SCc2ccc(C#N)cc2)nnc1-c1ccncc1 | inactive
13 | CSc1nnnc2ccccc12 | inconclusive: 20.6 µM [rising, single point]
14 | CC(C)(C)c1nc(SCC(=O)c2ccccc2)c2ccccc2n1 | inconclusive: 23.1 µM [cytotoxic, single point]
15 | COc1cc(Cl)c(C)cc1NC(=O)CN(C)Cc1cccc(OC)c1OC | inconclusive: 23.1 µM [cytotoxic, single point]
16 | O=C(O)c1cc2c(ncc3c(=O)n(-c4ccccc4)[nH]c32)s1 | inactive
17 | Cc1ccc(NC(=O)Cc2nc(COC(=O)c3c(F)cccc3Cl)cs2)cc1 | inactive
18 | CCC(CC)c1nnc(NC(=O)c2cccnc2SC)s1 | inconclusive: 10.3 µM [cytotoxic, partial curve, poor fit]
19 | CCn1c(SCC(=O)Nc2nc3c(s2)CCCC3)nnc1-c1ccccc1 | inactive
20 | COc1ccc(C(=O)c2ccc(Cl)cc2)c2ccccc12 | inconclusive: 29.1 µM [cytotoxic, single point]
21 | CCOc1cc(C#N)c(NC(=O)c2cccnc2)cc1OCC | inconclusive: 6.51 µM [cytotoxic, partial curve, poor fit]
22 | Cc1ccc(-c2nc3c(c(=O)[nH]c(=O)n3Cc3ccccc3)n2Cc2ccccc2)o1 | inconclusive: 1.16 µM [cytotoxic, full curve, poor fit]
23 | C[C@@H]1O[C@H](C2CCCC2)Cc2[nH]c(=S)[nH]c(=O)c21 | inconclusive: 10.3 µM [cytotoxic, partial curve, poor fit]
24 | CCOc1ccccc1-n1c(SCC(=O)Nc2ccc(CC)cc2)nc2n[nH]c(C)c2c1=N | inconclusive: 10.3 µM [cytotoxic, partial curve, poor fit]

Row | Structure (SMILES) | Potency
25 | COc1ccc(NC(=O)C2=C(C)C(=O)OC23CCN(C(C)C)CC3)cc1Cl | inactive
26 | Cc1cccc(N2CCN(C(=O)c3cc4n(n3)C(C(F)(F)F)CC(c3ccco3)N4)CC2)c1C (stereo unspecified) | inconclusive: 9.2 µM [cytotoxic, single point]
27 | COc1ccc(OC)c(CCNC(=O)c2ccccc2NC(=O)C2=C(C)OCCS2)c1 | inactive
28 | CCN(CCO)C(=O)CC1C(=O)NCCN1Cc1c(F)cccc1Cl (stereo unspecified) | inconclusive: 18.4 µM [rising, partial curve, poor fit]
29 | COc1ccc(-n2nc3c(c2NC(=O)c2ccc(S(=O)(=O)N4CCOCC4)cc2)CS(=O)C3)cc1 (stereo unspecified) | inconclusive: 29.1 µM [rising, single point]
30 | C/C=C(\C)C(=O)N[C@@H](C)CN1C2=NC[C@H](C(C)C)N2C[C@H]1Cc1ccc(OC)cc1 | inconclusive: 20.6 µM [rising, single point]
31 | COC(=O)C(Cc1cnc(Cl)s1)(C(=O)OC)c1ccc([N+](=O)[O-])cc1[N+](=O)[O-] | inconclusive: 18.4 µM [cytotoxic, single point]
32 | O=C(c1coc(=O)c(Br)c1)N1CCCc2ccccc21 | inactive
33 | CN(Cc1ccccc1)C(=O)c1[nH]cnc1C(=O)Nc1ccc(Br)cc1F | inconclusive: 29.1 µM [cytotoxic, single point]
34 | Cc1ccccc1OCc1n(CC(=O)OC2CC(C)CCC2C(C)C)c2ccccc2[n+]1C (stereo unspecified) | inactive
35 | CCN(CC)c1ncnc2c1ncn2[C@H]1CN(Cc2ccc(Cl)cc2)C[C@@H](CO)O1 | inconclusive: 2.59 µM [cytotoxic, full curve, poor fit]
36 | COc1cc2nc(Nc3ccc(C)c(Cl)c3)nc(N)c2cc1OC | inconclusive: 20.6 µM [cytotoxic, single point]
37 | Cc1ccc(C)c(S(=O)(=O)N2CCN(C(=O)c3cccnc3)CC2)c1 | inconclusive: 0.0103 µM [cytotoxic, full curve, poor fit]
38 | Cn1c(SCC(=O)NCC2CCCO2)nnc1-c1ccco1 (stereo unspecified) | inactive
39 | COc1cc(C(=O)Nc2nc(C)c(Cc3ccc4c(c3)OCO4)s2)cc(OC)c1OC | active: 1.46 µM
40 | O=C(NC(Cc1ccccc1)C(=O)O)/C(=C/c1ccc(Br)cc1)NC(=O)c1ccc(Br)o1 (stereo unspecified) | inconclusive: 29.1 µM [rising, single point]
41 | O=C(CSc1nnc(SCc2cccc3ccccc23)s1)Nc1ccc(C(=O)O)cc1 | inactive
42 | CCCn1c(SCC(=O)NCc2ccc(C)cc2)n[nH]c1=O | inactive
43 | O=C(CN1C(=O)S/C(=C\C=C\c2ccccc2)C1=O)Nc1ccc(O)cc1 | inactive
44 | Cc1ccc(F)cc1NC(=O)c1ccc(NS(=O)(=O)c2ccc(Br)s2)cc1 | active: 16.4 µM
45 | O=C(c1ccc(S(=O)(=O)N2CCCCCC2)cc1)N1CCN(Cc2ccccc2)CC1 | inconclusive: 29.1 µM [cytotoxic, single point]
46 | CCCOc1ccc(Nc2cc(C)nc(C)n2)cc1 | inactive
47 | O=C(Cn1c(=O)n(-c2ccc(F)cc2)c(=O)c2sc3ccccc3c21)NC1CCCCC1 | inconclusive: 29.1 µM [rising, single point]
48 | O=C(COC(=O)CNC(=O)c1cccc(OC(F)F)c1)NNC(=O)c1ccccc1 | inconclusive: 23.1 µM [rising, single point]

A different layout for part of the listing above.
Row	Structure (SMILES)	Potency
25	COc1ccc(NC(=O)C2=C(C)C(=O)OC23CCN(C(C)C)CC3)cc1Cl	inactive
29	COc1ccc(-n2nc3c(c2NC(=O)c2ccc(S(=O)(=O)N4CCOCC4)cc2)CS(=O)C3)cc1 (stereo unspecified)	inconclusive: 29.1 µM [rising, single point]
37	Cc1ccc(C)c(S(=O)(=O)N2CCN(C(=O)c3cccnc3)CC2)c1	inconclusive: 0.0103 µM [cytotoxic, full curve, poor fit]
40	O=C(NC(Cc1ccccc1)C(=O)O)/C(=C/c1ccc(Br)cc1)NC(=O)c1ccc(Br)o1 (stereo unspecified)	inconclusive: 29.1 µM [rising, single point]
42	CCCn1c(SCC(=O)NCc2ccc(C)cc2)n[nH]c1=O	inactive
47	O=C(Cn1c(=O)n(-c2ccc(F)cc2)c(=O)c2sc3ccccc3c21)NC1CCCCC1	inconclusive: 29.1 µM [rising, single point]

Continued:

Row | Structure (SMILES) | Potency
49 | CCOC(=O)c1ccc2c(c1)N(Cc1cccc(C(F)(F)F)c1)C(=O)c1ccccc1S2(=O)=O | inconclusive: 13 µM [cytotoxic, partial curve, poor fit]
50 | COc1ccc([C@H]2C[C@@H](O)[C@H](n3cc(COC(=O)c4ccccc4)nn3)CN2CC2CCCCC2)cc1 | inconclusive: 0.0052 µM [rising, full curve, poor fit]
51 | CCCCNc1ccc2c3c(cccc13)C(=O)N(CCCC)C2=O | inconclusive: 29.1 µM [cytotoxic, single point]
52 | CCc1ccccc1Nc1cc(C(=O)NCCc2ccccc2)c2ccccc2n1 | inactive
53 | O=C(COC(=O)CN1C(=O)c2ccccc2C1=O)Nc1ccc(S(=O)(=O)N2CCCC2)cc1 | inconclusive: 18.4 µM [rising, partial curve, poor fit]
54 | COc1cc(C2Nc3ccccc3C(=O)N2Cc2ccco2)ccc1O (stereo unspecified) | inactive
55 | COCc1cc(C)nc(OCC(=O)N/N=C/c2ccc(O)cc2)c1C#N | inactive
56 | CCc1c(C)nc(N)n2c(SCC(=O)Nc3ccccc3OC)nnc12 | inconclusive: 29.1 µM [cytotoxic, single point]
57 | CCCn1ccc2c(OCC(=O)Nc3ccccc3OCC)cccc2c1=O | inconclusive: 23.1 µM [cytotoxic, partial curve, poor fit]
58 | CC(=O)Nc1ccc(NC(=O)C2Cc3c(-c4ccc5c(c4)OCO5)ccnc3O2)cc1 (stereo unspecified) | inactive
59 | CCc1ccc(Nc2nnc(SCC(=O)N(C)C3CCS(=O)(=O)C3)s2)cc1 (stereo unspecified) | inconclusive: 29.1 µM [rising, single point]
60 | CC(C)N(Cc1nnc(-c2ccc(Cl)cc2)o1)C(=O)c1cc2ccccc2o1 | inconclusive: 18.4 µM [cytotoxic, single point]
61 | COc1ccc(OC)c(CCNc2nccn(-c3ccc(C)c(C)c3)c2=O)c1 | inactive
62 | CCOC(=O)C(C)Sc1nc(N)c(NC(=O)c2ccc(OC)c(OC)c2)c(=O)[nH]1 (stereo unspecified) | inactive
63 | CC1CCc2cc(F)cc3c(O)c(C(=O)NCC4CCCO4)c(=O)n1c23 (stereo unspecified) | inconclusive: 10.3 µM [cytotoxic, partial curve, poor fit]
64 | COc1ccc(NC(=O)CSCC(=O)N(C)Cc2ccc3c(c2)OCCO3)cc1 | active: 14.6 µM
65 | O=C(N/N=C/C=C/c1ccccc1)c1ccncc1 | inactive
66 | COc1ccc(CCNC(=O)C2CCN(c3nc4ccccc4nc3C(F)(F)F)CC2)cc1OC | inconclusive: 20.6 µM [cytotoxic, single point]
67 | CCCN1CCC(=O)N([C@H](CSc2ccc(C)cc2)Cc2ccccc2)CC1 | inactive
68 | CCc1ncc(CN2CCCCC2C(=O)Nc2ccc(Oc3ccccc3)nc2)cn1 (stereo unspecified) | inconclusive: 2.59 µM [cytotoxic, full curve, poor fit]
69 | Cc1ccc(Oc2ncccc2NC(=O)CC(CC(=O)O)c2ccccc2)c2c1CCC2 (stereo unspecified) | inconclusive: 4.61 µM [rising, full curve, poor fit]
70 | CCc1nnc(NC(=O)C2Cc3ccccc3CN2S(=O)(=O)CC)s1 (stereo unspecified) | inactive
71 | COc1ccc(N(C)C(=O)C2CCN(S(=O)(=O)c3cccc4nsnc34)CC2)cc1 | inconclusive: 6.51 µM [cytotoxic, partial curve]
